## Library screen at single concentrations

Each number is a percent effect as filed. The record does not define 0% and 100%; most values in the screen are far below 50% and negative numbers occur (in some assays of this library far below -100). This is an unselected part of the compounds tested. Two or more numbers in one place are separate tests of the same structure; such repeats can differ widely.

A: 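Phenotypic screen: M. tuberculosis growth, glucose 7H9 medium, 3 days; the read-out is not stated. Tested at 50 µM. The record gives no direction; compounds that gave an IC50 in retests scored well above the rest, so higher reads as more growth inhibition. Of about 69,000 compounds tested this way, about 760 (1.1%) reached 50% or more in at least one test.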
B: 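Whole-cell growth test on Mycobacterium tuberculosis, read after 4 days in a medium based on cholesterol and the lipid DPPC; the read-out is not stated. Compounds at 50 µM. The record gives no direction; compounds that gave an IC50 in retests scored well above the rest, so higher reads as more growth inhibition. Size under these conditions: about 69,000 compounds, about 370 of them at 50% or above in at least one test.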

* CC(=O)c1cn(CC(=O)N2CCCC(O)(CO)C2)c2ccccc12 (centres undefined) : A: -32.82%; B: 3.43%
* O=C(NCc1ccc(CN2CCCC2)cc1)NCc1ccon1 : A: 3.46% & -0.7895%; B: 17.38%
* Cn1nc(C(C)(C)C)cc1NC(=O)CSc1nnc[nH]1 : A: -0.2229% & -6.191%; B: 18.78%
* O=C1CCCN1C1CCCN(CCOc2ccc(F)cc2)C1 (centres undefined) : A: 7.758%; B: -8.856%
* O=C(Nc1cnc(C2CC2)nc1)N1CCCC1 : A: -14.93%; B: -14.13% & -8.581%
* CCc1nc(Cn2c(=O)c3c(C(F)(F)F)cc(C)nc3n2C)no1 : A: 44.08%; B: 47.46%
* CC(C)CN1CCC(c2nc3ccc(NC(C)C)cn3n2)CC1.O=C(O)C(F)(F)F.O=C(O)C(F)(F)F : A: 20.01%; B: 6.177%
* Cc1cncc(C(=O)N2CCCC3(CCCN3S(C)(=O)=O)C2)c1 (centres undefined) : A: 3.986% & 30.68%; B: 17.61% & -1.29%
* Cc1csc(CN(C)c2cc(C)nc3c(C)c(C)nn23)n1 : A: 58.07% & 65.34%; B: 38.19%
* Cc1cc(C)n(-c2ccc(N3CCC4(CC3)OCC(C)O4)nc2)n1 (centres undefined) : A: -27.61%; B: -20.03%
* CCCn1ccnc1SCCNS(=O)(=O)c1ccccc1 : A: 6.487%; B: 10.35%
* COc1cc(NCC(O)CN2CCCCCC2)ncn1 (centres undefined) : A: -5.092%; B: -1.974%
* COc1ccccc1-n1nc(-c2ccco2)n(CC(N)=O)c1=O : A: -29.77%; B: 6.482%
* CCC(O)Cn1nc(CCSC)nc1-c1ccc2c(c1)OCCO2 (centres undefined) : A: 1.894% & -8.883%; B: -19.61%
* COc1cc(CNCCNC(=O)c2ccc(O)cc2)ccc1SC : A: -20.2%; B: 1.708%
* Cc1cnn(CC2CCCCN2C(=O)CC(F)(F)F)c1 (centres undefined) : A: 5.442%; B: -14.82%
* [H][C@@]12CCN(Cc3nccs3)C[C@]1([H])O[C@@H](C(=O)NCC1CC1)C2 : A: 20.17%; B: -0.1376%
* [H][C@@]12CN(C(=O)c3cnc(C)cn3)C[C@@]1([H])N(CC1CCCC1)C(=O)CO2 : A: -9.677% & -40.14%; B: -19.05%
* O=C(Nc1cccnc1)N1CCC(n2ccc(C(F)(F)F)n2)CC1 : A: 52.72% & 39.35%; B: 41.33%
* Cc1cccc(NC(=O)[C@@H]2CCCN2CC(=O)Nc2ccccc2)n1 : A: 15.72%; B: -0.6324% & 4.884%
* CCOCC(=O)N1Cc2cnc(-c3ccccc3)nc2C1 : A: 7.141%; B: 8.455%
* CCn1nc(C)c2nc(C(C)C)nc(NCC(C)O)c21 (centres undefined) : A: 7.483%; B: 0.6111%
* Cc1nc(CN(C)C2CCN(CCCOc3ccc(F)cc3)C2)no1 (centres undefined) : A: -19.2%; B: -22.61%
* Cc1cnccc1CN(C)C(=O)c1ccc(Cn2cnnn2)cc1 : B: -17.16%
* CCN(C)c1ncnc2c1CCN(C(=O)c1ccc(C)o1)CC2 : A: 8.661% & 2.964%; B: -22.92%
* O=C(O)C(c1ccc2c(c1)OCCO2)N1CCC(N2CCSCC2)CC1 (centres undefined) : A: -28.23%; B: -36.49% & -0.7258%
* COc1ccc(OC)c(C2CCN(C(=O)C3CCS(=O)(=O)CC3)C2)c1 (centres undefined) : A: 17.16%; B: 1.062%
* Cc1cnn(CC(C)NCc2nc(-c3ccco3)no2)c1 (centres undefined) : A: 2.422% & -29.72%; B: -11.25%
* CCc1nc(C2CCCN2C(=O)c2ccc3c(c2)nnn3CC)no1 (centres undefined) : A: 32.77%; B: -4.643%
* c1cc(CNCCc2cn3ccccc3n2)c2c(c1)OCCCO2 : A: -37.27% & 11.2%; B: 23.52%
* CCn1c(C)cc(C(=O)N2CCCC(c3nc(C)no3)C2)c1C (centres undefined) : A: -8.409%; B: -32.9%
* Cl.Cl.[H][C@@]12CCNCC1OCCN2Cc1ccccc1 (some centres undefined) : A: -1.154% & 33.15%; B: -19.82%
* CC(C)N(C)Cc1cn2c(n1)CN(C(=O)Cc1ccccc1)CC2.O=C(O)C(F)(F)F : A: 11.66%; B: -4.887%
* COc1ccc(C2=CCN(C(=O)C3CCCN(C(C)=O)C3)CC2)cc1 (centres undefined) : A: -4.018%; B: 20.41%
* Cc1cc(-c2nccn2CCN2CCCCC2CO)oc1C (centres undefined) : A: -0.08777%; B: -3.38% & -10.99%
* [H][C@]12CC[C@]([H])(CN(C(=O)C3CCC3)C1)N(Cc1cnn(CC)c1)C2 : A: -15.45%; B: -8.077%
* COc1ccc(C)cc1CN(C)CCCNS(C)(=O)=O : A: 18.56%; B: -1.807%
* O=C(O)C(F)(F)F.[H][C@@]12CCN(C(=O)Cc3cccs3)[C@@]1([H])CC(=O)N2Cc1ccncc1 : A: -12.08%; B: -6.524%
* O=C(O)C(F)(F)F.[H][C@@]12COC[C@]1(C(=O)NC(C)C)CN(Cc1scnc1C)C2 : A: 14.48%; B: -9.249% & 7.844%
* CCC(CO)N(Cc1ccco1)C(=O)c1cccnc1NC (centres undefined) : A: -1.849%; B: -16.59%

5 of the entries, repeated:

- CCC(CO)N(Cc1ccco1)C(=O)c1cccnc1NC (centres undefined) : A: -1.849%; B: -16.59%
- Cc1cc(-c2nccn2CCN2CCCCC2CO)oc1C (centres undefined) : A: -0.08777%; B: -3.38% & -10.99%
- [H][C@]12CC[C@]([H])(CN(C(=O)C3CCC3)C1)N(Cc1cnn(CC)c1)C2 : A: -15.45%; B: -8.077%
- Cn1nc(C(C)(C)C)cc1NC(=O)CSc1nnc[nH]1 : A: -0.2229% & -6.191%; B: 18.78%
- [H][C@@]12CN(C(=O)c3cnc(C)cn3)C[C@@]1([H])N(CC1CCCC1)C(=O)CO2 : A: -9.677% & -40.14%; B: -19.05%

The values are deposited in ChEMBL (CHEMBL3988442, “University of Dundee, Small-Polar-MMV Screening Library” (2021)).